This is an account of results in article doi:10.1101/2020.09.03.282368.

The chains behind the UniProt entries cited, without tags or fusion partners.
UniProt A2AWL7: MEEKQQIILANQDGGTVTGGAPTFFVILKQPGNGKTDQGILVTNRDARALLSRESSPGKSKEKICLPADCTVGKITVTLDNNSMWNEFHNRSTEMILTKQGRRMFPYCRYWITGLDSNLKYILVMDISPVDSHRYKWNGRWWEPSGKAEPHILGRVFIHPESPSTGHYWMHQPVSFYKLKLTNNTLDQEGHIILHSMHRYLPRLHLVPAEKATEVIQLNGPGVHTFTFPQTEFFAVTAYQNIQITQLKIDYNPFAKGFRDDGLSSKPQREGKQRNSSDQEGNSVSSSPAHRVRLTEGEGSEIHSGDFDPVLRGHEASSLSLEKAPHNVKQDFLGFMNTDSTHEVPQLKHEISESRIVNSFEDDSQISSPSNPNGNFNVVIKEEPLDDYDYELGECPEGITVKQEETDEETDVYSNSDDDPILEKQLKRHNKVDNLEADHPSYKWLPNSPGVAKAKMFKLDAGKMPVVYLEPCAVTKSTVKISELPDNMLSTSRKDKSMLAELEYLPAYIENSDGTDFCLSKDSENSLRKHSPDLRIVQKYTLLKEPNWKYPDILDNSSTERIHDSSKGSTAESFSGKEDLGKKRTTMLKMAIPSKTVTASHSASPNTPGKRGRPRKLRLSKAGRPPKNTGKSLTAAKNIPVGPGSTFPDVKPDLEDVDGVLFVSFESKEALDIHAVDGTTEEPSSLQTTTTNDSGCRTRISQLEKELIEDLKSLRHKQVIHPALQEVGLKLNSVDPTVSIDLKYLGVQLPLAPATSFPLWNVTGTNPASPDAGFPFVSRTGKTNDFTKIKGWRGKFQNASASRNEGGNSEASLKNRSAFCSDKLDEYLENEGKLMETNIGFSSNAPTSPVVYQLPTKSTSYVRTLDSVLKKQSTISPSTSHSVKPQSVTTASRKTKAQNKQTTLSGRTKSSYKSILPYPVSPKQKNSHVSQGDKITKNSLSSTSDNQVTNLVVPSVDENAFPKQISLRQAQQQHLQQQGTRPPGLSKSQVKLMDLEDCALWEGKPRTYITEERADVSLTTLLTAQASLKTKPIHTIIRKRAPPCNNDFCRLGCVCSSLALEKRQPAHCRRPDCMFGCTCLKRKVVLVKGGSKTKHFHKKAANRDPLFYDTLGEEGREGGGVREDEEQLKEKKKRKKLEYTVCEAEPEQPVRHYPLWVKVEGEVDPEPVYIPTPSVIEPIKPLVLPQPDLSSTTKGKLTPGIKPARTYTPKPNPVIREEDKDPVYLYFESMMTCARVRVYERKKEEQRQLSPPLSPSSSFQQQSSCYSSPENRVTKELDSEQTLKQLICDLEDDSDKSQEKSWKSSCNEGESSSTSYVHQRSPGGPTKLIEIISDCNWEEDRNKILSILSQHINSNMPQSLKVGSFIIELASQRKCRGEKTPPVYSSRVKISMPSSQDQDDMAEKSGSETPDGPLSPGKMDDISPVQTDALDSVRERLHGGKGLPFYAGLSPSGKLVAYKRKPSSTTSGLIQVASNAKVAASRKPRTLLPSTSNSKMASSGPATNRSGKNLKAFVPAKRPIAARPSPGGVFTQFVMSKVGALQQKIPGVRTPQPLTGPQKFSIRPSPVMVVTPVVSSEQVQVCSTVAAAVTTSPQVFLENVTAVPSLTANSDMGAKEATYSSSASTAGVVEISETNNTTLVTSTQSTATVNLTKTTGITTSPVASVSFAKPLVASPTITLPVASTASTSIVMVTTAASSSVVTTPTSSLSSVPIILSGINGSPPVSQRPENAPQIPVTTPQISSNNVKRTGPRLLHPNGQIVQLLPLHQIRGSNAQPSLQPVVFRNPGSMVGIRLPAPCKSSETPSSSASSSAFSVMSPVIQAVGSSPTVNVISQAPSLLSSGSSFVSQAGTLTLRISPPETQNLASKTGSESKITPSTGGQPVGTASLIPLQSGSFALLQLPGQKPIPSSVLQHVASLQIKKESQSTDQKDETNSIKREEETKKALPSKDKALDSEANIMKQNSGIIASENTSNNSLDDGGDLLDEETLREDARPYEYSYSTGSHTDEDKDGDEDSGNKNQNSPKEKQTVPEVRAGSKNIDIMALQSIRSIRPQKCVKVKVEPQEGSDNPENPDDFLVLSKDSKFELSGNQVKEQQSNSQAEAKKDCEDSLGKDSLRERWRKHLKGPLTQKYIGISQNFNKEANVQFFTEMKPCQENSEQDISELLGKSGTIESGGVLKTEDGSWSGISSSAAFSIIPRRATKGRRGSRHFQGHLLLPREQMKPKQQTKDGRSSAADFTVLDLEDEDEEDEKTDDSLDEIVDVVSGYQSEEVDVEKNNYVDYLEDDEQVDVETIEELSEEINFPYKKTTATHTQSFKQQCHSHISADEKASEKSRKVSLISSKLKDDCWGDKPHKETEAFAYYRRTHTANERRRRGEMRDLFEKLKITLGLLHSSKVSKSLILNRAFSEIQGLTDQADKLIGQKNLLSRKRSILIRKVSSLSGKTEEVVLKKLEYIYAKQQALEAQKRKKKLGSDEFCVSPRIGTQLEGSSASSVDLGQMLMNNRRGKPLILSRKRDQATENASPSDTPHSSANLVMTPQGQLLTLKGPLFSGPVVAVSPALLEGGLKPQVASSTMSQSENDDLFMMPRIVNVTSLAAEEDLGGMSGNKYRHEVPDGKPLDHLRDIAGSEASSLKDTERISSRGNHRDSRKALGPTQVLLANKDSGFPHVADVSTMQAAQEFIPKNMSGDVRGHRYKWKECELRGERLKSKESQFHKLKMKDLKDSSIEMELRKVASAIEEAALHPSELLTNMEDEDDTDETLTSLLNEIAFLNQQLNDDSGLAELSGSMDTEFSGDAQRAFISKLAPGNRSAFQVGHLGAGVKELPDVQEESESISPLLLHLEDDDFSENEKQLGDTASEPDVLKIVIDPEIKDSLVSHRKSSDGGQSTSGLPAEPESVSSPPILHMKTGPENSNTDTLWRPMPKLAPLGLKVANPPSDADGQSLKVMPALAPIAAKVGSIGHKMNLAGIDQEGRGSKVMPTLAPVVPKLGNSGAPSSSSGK
UniProt Q13185: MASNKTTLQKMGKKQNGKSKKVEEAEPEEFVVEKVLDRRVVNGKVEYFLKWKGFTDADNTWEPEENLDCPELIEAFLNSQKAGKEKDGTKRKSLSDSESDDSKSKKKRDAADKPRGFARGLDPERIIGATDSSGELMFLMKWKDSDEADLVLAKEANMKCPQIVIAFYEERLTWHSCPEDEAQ
UniProt Q969R5: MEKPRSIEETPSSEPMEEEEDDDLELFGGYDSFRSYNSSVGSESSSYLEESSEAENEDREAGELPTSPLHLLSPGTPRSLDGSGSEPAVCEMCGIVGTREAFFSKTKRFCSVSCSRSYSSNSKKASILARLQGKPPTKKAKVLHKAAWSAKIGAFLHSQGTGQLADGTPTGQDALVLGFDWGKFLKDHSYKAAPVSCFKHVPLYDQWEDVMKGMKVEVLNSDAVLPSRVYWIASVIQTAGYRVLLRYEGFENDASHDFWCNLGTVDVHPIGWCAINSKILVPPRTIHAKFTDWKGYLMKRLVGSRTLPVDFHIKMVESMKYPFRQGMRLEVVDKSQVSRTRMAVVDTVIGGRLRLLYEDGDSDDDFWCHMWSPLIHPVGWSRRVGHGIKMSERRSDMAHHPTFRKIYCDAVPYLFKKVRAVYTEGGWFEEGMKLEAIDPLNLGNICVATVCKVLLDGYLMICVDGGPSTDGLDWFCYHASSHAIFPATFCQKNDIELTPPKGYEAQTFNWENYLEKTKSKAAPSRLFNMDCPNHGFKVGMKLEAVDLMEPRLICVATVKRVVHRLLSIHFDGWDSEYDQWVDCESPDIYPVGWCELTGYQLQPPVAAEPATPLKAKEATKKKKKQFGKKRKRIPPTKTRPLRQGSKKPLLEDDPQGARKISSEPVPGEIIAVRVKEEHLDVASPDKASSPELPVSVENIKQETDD
UniProt P61244: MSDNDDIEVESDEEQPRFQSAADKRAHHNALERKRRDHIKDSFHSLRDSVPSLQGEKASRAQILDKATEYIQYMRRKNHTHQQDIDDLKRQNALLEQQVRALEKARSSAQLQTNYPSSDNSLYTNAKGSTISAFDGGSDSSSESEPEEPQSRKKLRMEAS
UniProt Q99496: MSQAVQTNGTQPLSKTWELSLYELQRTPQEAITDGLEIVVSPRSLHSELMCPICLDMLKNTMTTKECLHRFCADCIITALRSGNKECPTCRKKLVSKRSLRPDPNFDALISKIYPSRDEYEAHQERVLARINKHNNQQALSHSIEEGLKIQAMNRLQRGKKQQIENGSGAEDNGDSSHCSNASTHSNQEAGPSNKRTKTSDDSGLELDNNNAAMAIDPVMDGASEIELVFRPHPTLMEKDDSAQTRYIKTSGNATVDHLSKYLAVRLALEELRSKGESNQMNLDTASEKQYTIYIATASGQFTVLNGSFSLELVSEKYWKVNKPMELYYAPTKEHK
UniProt Q15022: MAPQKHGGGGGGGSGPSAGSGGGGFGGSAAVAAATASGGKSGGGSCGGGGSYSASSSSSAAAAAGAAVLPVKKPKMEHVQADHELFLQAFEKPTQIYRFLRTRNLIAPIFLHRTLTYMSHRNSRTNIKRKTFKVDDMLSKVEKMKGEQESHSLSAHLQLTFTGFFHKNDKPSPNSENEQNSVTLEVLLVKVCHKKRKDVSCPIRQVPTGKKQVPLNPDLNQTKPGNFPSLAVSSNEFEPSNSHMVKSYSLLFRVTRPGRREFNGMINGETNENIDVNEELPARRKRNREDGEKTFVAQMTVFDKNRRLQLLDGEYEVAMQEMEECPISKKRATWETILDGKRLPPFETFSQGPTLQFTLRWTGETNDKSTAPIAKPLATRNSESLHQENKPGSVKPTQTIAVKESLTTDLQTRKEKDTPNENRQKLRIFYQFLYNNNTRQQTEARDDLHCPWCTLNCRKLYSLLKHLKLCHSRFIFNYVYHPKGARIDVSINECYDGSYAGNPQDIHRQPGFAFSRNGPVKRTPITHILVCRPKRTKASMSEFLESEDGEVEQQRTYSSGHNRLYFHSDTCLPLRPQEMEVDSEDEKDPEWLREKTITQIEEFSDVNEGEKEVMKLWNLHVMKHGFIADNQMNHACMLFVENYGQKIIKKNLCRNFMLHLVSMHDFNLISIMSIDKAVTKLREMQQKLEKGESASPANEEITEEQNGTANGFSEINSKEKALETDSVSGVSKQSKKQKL

Results are given in words; binding and its absence hold for the method and conditions named. Binding seen in cells or lysates may run through a third protein. Some entries that bind do so weakly or less than the wild type.

To fix the notation:
B1: PCGF6 (protein, UniProt Q9BYE7 1-350)
chain: MEGVAVVTAGSVGAAKTEGAAALPPPPPVSPPALTPAPAAGEEGPAPLSETGAPGCSGSRPPELEPERSLGRFRGRFEDEDEELEEEEELEEEEEEEEEDMSHFSLRLEGGRQDSEDEEERLINLSELTPYILCSICKGYLIDATTITECLHTFCKSCIVRHFYYSNRCPKCNIVVHQTQPLYNIRLDRQLQDIVYKLVINLEEREKKQMHDFYKERGLEVPKPAVPQPVPSSKGRSKKVLESVFRIPPELDMSLLLEFIGANEGTGHFKPLEKKFVRVSGEATIGHVEKFLRRKMGLDPACQVDIICGDHLLEQYQTLREIRRAIGDAAMQDGLLVLHYGLVVSPLKIT

The assay deals with Flag-tagged wildtype MGA (mouse) (UniProt A2AWL7). Description: co-IP.
In the case of HP1γ (from UniProt Q13185 1-183), the binding entry was “binds”. As for L3MBTL2 (from UniProt Q969R5 1-705), the entry is “binds”. Next, MAX (from UniProt P61244 1-160): “binds”; RING1B (from UniProt Q99496 1-336): “binds”; SUZ12 (from UniProt Q15022 1-739): “no binding”.

Take B1: the binding entry is reported as “binds”.
